For part of these data: Tags and fusion partners may be left off the protein sequences shown. The exact form of at least one protein or probe is not confirmed. For part of these data: At least one verdict rests on a figure or table, not on a statement of the authors.
What was measured:
[1] = biological target: T1, DasR (Saccharopolyspora erythraea) (UniProt A4F723); experiment: EMSA; conditions: EMSA: 10 mM Tris-HCl pH 8.0, 25 mM MgCl2, 50 mM NaCl, 1 mM DTT, 1 mM EDTA, 0.01% NP-40, 50 ug/mL poly(dIdC), 10% glycerol, 18 C, 30 min, recombinant protein, residues 1-251, protein details: His (pET-28a), label: 5'-biotin, probe letters rebuilt from the primers and the genome
T1 sequence (looked up): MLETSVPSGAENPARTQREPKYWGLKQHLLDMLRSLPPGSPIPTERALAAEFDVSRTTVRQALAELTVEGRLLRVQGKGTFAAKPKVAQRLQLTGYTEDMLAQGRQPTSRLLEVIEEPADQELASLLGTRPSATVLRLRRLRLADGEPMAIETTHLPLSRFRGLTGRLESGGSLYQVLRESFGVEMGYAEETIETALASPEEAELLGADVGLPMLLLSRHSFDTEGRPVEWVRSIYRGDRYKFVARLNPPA

By UniProt entry, the sequences of proteins in these tests, tags left out. Where a name states a change or a piece, a line headed by the entry shows the natural chain unless it says otherwise.
UniProt Q9K492: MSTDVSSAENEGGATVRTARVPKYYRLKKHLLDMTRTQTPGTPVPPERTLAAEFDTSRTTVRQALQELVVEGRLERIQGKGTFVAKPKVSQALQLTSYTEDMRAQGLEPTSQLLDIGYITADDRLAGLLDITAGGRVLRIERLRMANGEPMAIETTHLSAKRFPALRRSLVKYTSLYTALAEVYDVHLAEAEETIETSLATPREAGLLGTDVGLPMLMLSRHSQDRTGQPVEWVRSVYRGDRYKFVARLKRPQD

[2] = biological target: T1, DasR (Saccharopolyspora erythraea); experiment: BLI; conditions: BLI: 10 mM HEPES pH 8.0, 2 mM MgCl2, 0.1 mM EDTA, 200 mM KCl (running buffer + 10 ug/mL BSA, 0.02% Tween-20), recombinant protein, residues 1-251, protein details: His (pET-28a), label: 5'-biotin, probe letters rebuilt from the primers and the genome
[3] = biological target: DasRSco (ScoDasR) (Streptomyces coelicolor) (UniProt Q9K492); experiment: EMSA; conditions: EMSA: 10 mM Tris-HCl pH 8.0, 25 mM MgCl2, 50 mM NaCl, 1 mM DTT, 1 mM EDTA, 0.01% NP-40, 50 ug/mL poly(dIdC), 10% glycerol, 18 C, 30 min, recombinant protein, residues 1-254, protein details: His, label: 5'-biotin, probe letters rebuilt from the primers and the genome

Sequence	binding result ([1]; 100 uM c-di-AMP, stable complex at 2 uM protein)	binding result ([1]; no c-di-AMP, clear shift at 20 uM protein)	Kd ([2]; 100 uM c-di-AMP) [µM]	Kd ([2]; no c-di-AMP) [µM]	binding result ([3]; 30 uM c-di-AMP, binding strongly enhanced)	binding result ([3]; c-di-GMP, little difference)	binding result ([3]; cAMP, little difference)	binding result ([3]; cGMP, little difference)	binding result ([3]; no c-di-AMP)
AGCCAGTGGCGATAAGCGCATGTGAGGTCACGAGCCGATCCTCCGCTACGGTTCCCCCAGTGGTCTACACCAACACGTGTGGTGTTGATTCTGGACGAACTGTCCCCGGCGGGGCGAGCCGGCCGTCGCGCCTCGCGCGGGACCCGCCCGCGGAGTACCCGCTCGGCGCCCTTCATCGCTCAACTCGCGTGGCGGTGCCCGACGGTGGGGCCCAAGCGGCTGCGCCGCTTCGAAGAACGAGAACAGGCACTCAGGTGCGGCGTGAGCCGCAGCGGTGAGGGGCCCGCTCAGTGCGAGCGCATGATCCGTTGCAGGGCCTTATCGCCACTGGCT (double strand) [nagA promoter]	binds	binds	0.44	19	–	–	–	–	–
AGCCAGTGGCGATAAGGACAGGAAGCTGTTCTTCCGTGGCGGGGGCGGGGCCGGAGTCGTCCGTTCGGGGTGCCTGCGGCGGCCTGTGCGGGTGCGGTGGGGGTGCGCGTAGCGCCGTTTGTCCGGTGGGTGGGTCGGGGGCGCGCCGGGGGGTGTCCGTCCTCGGAACGGCGCGGAATCGGTCACTTGAAAAGGCTCGGGGCGTTGACGCGCCAACCGCTGCGGGCGGACACCCCCCGACACGCCCCCTCCTCGCCGTACGCCGCTCTCCCCGCCCACACTCCGCGTCCCCCGCCCCGCCGTACGCGGCTGACCGTCCAATCCCGCTCAGCTGCGGGCAGCCGCCACGCCGCCCCAGCTGCGGGCAGTCGTGCCGCTGGGGCGGCACGGGTGGGCGCAGCGGCACCCCGCAACGCCGGGCCGCGCTCCTTATCGCCACTGGCT (double strand) [disA promoter (SCO3351)]	–	–	–	–	binds	binds	binds	binds	binds

— article PMC11076491, “Allosteric regulation by c-di-AMP modulates a complete N-acetylglucosamine signaling cascade in Saccharopolyspora erythraea” (Nature Communications, 2024)
